Laboratory results as given in the supplement of paper PMC10331698.
± gives the standard deviation of the averaged measurements. Small differences around the control level are noise.

Tests used:
Experiment in all cases: level (log10 ratio to DMSO vehicle control); higher = higher biomarker level / cell amount than vehicle control
[1] = compound: C=C(C)C(=O)OCC(F)(F)C(F)(F)C(F)(F)F [2,2,3,3,4,4,4-Heptafluorobutyl methacrylate]; conditions: 2200 nM; in DMSO
Method: (§1)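 BioMAP Diversity Plus panel of 12 human primary cell co-culture systems (3C, 4H, LPS, SAg, BT, BF4T, BE3C, CASM3C, HDF3CGF, KF3CT, MyoF, Mphg). Compounds were added 1 h before stimulation and left for 24 h (MyoF 48 h; BT 72 h for soluble read-outs or 6 d for IgG). Biomarkers were read by ELISA, cytotoxicity by SRB, PBMC viability and proliferation by Alamar Blue. Each well value was divided by the mean of 8 DMSO control wells on the same plate and log10 transformed; duplicate blinded samples were tested at 4 concentrations.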

[2] = compound: C=CC(=O)OCC(F)(F)C(F)(F)C(F)(F)C(F)(F)COC(=O)C=C [1H,1H,6H,6H-Perfluorohexane-1,6-diol diacrylate]; conditions: 2200 nM; in DMSO
Method: as §1

[3] = compound: FC(F)(F)C(F)(F)C(F)(F)C(F)(F)C(F)(F)C(F)(F)C(F)(F)CCI [1-Iodo-1H,1H,2H,2H-perfluorononane]; conditions: in DMSO
Method: as §1

[4] = compound: FC(F)(F)C(F)(F)C(F)(F)C(F)(F)C(F)(F)C(F)(F)C(F)(F)I [1-Iodopentadecafluoroheptane]; conditions: in DMSO
Method: as §1

[5] = compound: FC(F)C(F)(F)COCC1CO1 [((2,2,3,3-Tetrafluoropropoxy)methyl)oxirane]; conditions: 2200 nM; in DMSO
Method: as §1

Perfluorooctanamide = compound: NC(=O)C(F)(F)C(F)(F)C(F)(F)C(F)(F)C(F)(F)C(F)(F)C(F)(F)F [Perfluorooctanamide]; conditions: 2200 nM; in DMSO
Method: as §1

Perfluoroundecanoic acid = compound: O=C(O)C(F)(F)C(F)(F)C(F)(F)C(F)(F)C(F)(F)C(F)(F)C(F)(F)C(F)(F)C(F)(F)C(F)(F)F [Perfluoroundecanoic acid]; conditions: in DMSO
Method: as §1

[6] = compound: O=C(O)C(F)(F)C(F)(F)C(F)(F)C(F)(F)C(F)(F)C(F)(F)C(F)(F)C(F)F [9-H-Perfluorononanoic acid]; conditions: 2200 nM; in DMSO
Method: as §1

Perfluorobutanoic acid = compound: O=C(O)C(F)(F)C(F)(F)C(F)(F)F [Perfluorobutanoic acid]; conditions: 2200 nM; in DMSO
Method: as §1

Perfluoropropanoic acid = compound: O=C(O)C(F)(F)C(F)(F)F [Perfluoropropanoic acid]; conditions: 2200 nM; in DMSO
Method: as §1

[7] = compound: O=C(O)C(F)(F)C(F)(F)OC(F)(F)F [Perfluoro-3-methoxypropanoic acid]; conditions: 2200 nM; in DMSO
Method: as §1

[8] = compound: O=C(O)C(F)(F)OC(F)(F)C(F)(F)OC(F)(F)C(=O)O [Perfluoro-3,6-dioxaoctane-1,8-dioic acid]; conditions: 2200 nM; in DMSO
Method: as §1

[9] = compound: O=C(O)C(F)(F)OC(F)(F)C(F)(F)OC(F)(F)C(F)(F)C(F)(F)C(F)(F)F [Perfluoro-3,6-dioxadecanoic acid]; conditions: 2200 nM; in DMSO
Method: as §1

[10] = compound: O=C(O)C=CC(F)(C(F)(F)F)C(F)(F)F [3-(Perfluoroisopropyl)-2-propenoic acid]; conditions: in DMSO
Method: as §1

[11] = compound: O=P(O)(O)CCC(F)(F)C(F)(F)C(F)(F)C(F)(F)C(F)(F)C(F)(F)C(F)(F)C(F)(F)F [((Perfluorooctyl)ethyl)phosphonic acid]; conditions: 2200 nM; in DMSO
Method: as §1

[12] = compound: O=S(=O)(Cl)C(F)(F)C(F)(F)C(F)(F)C(F)(F)C(F)(F)C(F)(F)C(F)(F)C(F)(F)F [Perfluoro-1-octanesulfonyl chloride]; conditions: 2200 nM; in DMSO
Method: as §1

[13] = compound: OCC(F)(F)C(F)(F)C(F)(F)C(F)(F)C(F)(F)C(F)(F)C(F)(F)C(F)(F)C(F)(F)C(F)(F)C(F)(F)F [11:1 Fluorotelomer alcohol]; conditions: in DMSO
Method: as §1

[14] = compound: OCCC(F)(F)C(F)(F)C(F)(F)C(F)(F)C(F)(F)C(F)(F)C(F)(F)C(F)(F)F [8:2 Fluorotelomer alcohol]; conditions: 2200 nM; in DMSO
Method: as §1

Test System | level (log10) [1] | level (log10) [2] | level (log10) ([3]; 740 nM) | level (log10) ([3]; 2200 nM) | level (log10) ([3]; 6700 nM) | level (log10) ([3]; 20000 nM) | level (log10) ([4]; 740 nM) | level (log10) ([4]; 2200 nM) | level (log10) ([4]; 6700 nM) | level (log10) ([4]; 20000 nM) | level (log10) [5] | level (log10) (Perfluorooctanamide) | level (log10) (Perfluoroundecanoic acid; 740 nM) | level (log10) (Perfluoroundecanoic acid; 2200 nM) | level (log10) [6] | level (log10) (Perfluorobutanoic acid) | level (log10) (Perfluoropropanoic acid) | level (log10) [7] | level (log10) [8] | level (log10) [9] | level (log10) ([10]; 2200 nM) | level (log10) ([10]; 6700 nM) | level (log10) ([10]; 20000 nM) | level (log10) ([10]; 60000 nM) | level (log10) [11] | level (log10) [12] | level (log10) ([13]; 370 nM) | level (log10) ([13]; 1100 nM) | level (log10) ([13]; 3300 nM) | level (log10) ([13]; 10000 nM) | level (log10) [14]
lMphg:CD69 | 0.0445 ± 0.0035 | 0.008 ± 0.0014 | -0.026 ± 0.03 | -0.0195 ± 0.039 | -0.0025 ± 0.023 | -0.053 ± 0.076 | -0.029 | -0.0625 ± 0.05 | -0.0455 ± 0.043 | -0.079 ± 0.062 | 0.0285 ± 0.026 | 0.0195 ± 0.022 | -0.0295 ± 0.086 | -0.043 ± 0.041 | -0.086 ± 0.083 | 0.048 ± 0.0085 | 0.0065 ± 0.036 | 0.0035 ± 0.021 | 0.0125 ± 0.018 | -0.009 ± 0.061 | 0.0055 ± 0.028 | -0.0265 ± 0.022 | -0.021 ± 0.035 | 0.0235 ± 0.049 | 0.014 ± 0.04 | -0.0415 ± 0.084 | -0.0155 ± 0.047 | -0.038 ± 0.017 | -0.103 ± 0.028 | -0.0685 ± 0.0078 | -0.026 ± 0.1
lMphg:CD106/VCAM-1 | 0.0075 ± 0.0021 | -0.01 ± 0.031 | -0.038 ± 0.0071 | -0.0125 ± 0.0064 | -0.009 ± 0.04 | -0.039 ± 0.075 | 0.005 ± 0.0014 | -0.0095 ± 0.0035 | -0.0025 ± 0.0064 | -0.007 ± 0.017 | -0.0175 ± 0.012 | -0.0115 ± 0.0078 | 0.019 ± 0.0085 | 0.0015 ± 0.0064 | -0.0325 ± 0.044 | 0.001 ± 0.035 | 0.0005 ± 0.00071 | 0.007 ± 0.0099 | 0.008 ± 0.02 | -0.011 ± 0.0014 | -0.015 ± 0.0085 | 0.001 ± 0.024 | 0.0125 ± 0.005 | 0.002 ± 0.034 | -0.008 ± 0.016 | -0.002 ± 0.02 | 0.0085 ± 0.016 | 0.0045 ± 0.005 | -0.001 ± 0.0014 | -0.0015 ± 0.0035 | -0.0035 ± 0.0021
